Results reported in paper doi:10.1101/2024.06.28.601286.
Like-named read-outs stand apart in the source and are kept apart here. Results are given in words; binding and its absence hold for the method and conditions named. In cells and extracts the contact can be indirect. A yes stands for co-enrichment or nearness to the bait. Other partners may have been found.

By UniProt entry, the sequences of proteins in these tests, tags left out. Residues count along the entry.
UniProt P62491: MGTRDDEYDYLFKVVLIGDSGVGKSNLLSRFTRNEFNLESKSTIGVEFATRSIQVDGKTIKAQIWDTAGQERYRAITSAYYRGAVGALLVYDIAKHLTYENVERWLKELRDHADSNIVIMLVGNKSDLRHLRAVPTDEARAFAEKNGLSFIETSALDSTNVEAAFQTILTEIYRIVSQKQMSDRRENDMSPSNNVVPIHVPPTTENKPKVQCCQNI
UniProt Q92598: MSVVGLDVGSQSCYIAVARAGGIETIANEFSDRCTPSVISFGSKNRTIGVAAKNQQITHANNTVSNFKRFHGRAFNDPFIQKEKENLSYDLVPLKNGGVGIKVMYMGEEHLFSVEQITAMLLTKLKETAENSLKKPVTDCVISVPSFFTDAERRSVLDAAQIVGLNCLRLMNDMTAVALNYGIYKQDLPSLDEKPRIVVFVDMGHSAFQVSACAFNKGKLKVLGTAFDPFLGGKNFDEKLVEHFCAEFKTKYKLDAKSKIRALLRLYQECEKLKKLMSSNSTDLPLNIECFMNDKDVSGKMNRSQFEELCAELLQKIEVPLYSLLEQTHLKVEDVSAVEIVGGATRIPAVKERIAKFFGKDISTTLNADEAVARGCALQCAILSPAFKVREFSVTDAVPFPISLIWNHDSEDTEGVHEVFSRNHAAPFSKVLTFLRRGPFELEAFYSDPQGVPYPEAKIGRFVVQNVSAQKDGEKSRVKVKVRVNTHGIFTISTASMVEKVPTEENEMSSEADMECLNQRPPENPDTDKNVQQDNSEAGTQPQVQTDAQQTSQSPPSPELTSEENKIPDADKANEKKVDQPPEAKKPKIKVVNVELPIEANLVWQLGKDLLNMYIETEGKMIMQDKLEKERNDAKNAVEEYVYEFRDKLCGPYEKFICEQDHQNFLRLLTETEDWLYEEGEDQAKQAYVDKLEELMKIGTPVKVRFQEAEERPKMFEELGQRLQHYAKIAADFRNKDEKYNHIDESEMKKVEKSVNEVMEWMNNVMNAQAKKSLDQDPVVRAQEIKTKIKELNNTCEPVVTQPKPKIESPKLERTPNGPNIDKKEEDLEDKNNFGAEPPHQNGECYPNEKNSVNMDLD
UniProt Q5SQI0: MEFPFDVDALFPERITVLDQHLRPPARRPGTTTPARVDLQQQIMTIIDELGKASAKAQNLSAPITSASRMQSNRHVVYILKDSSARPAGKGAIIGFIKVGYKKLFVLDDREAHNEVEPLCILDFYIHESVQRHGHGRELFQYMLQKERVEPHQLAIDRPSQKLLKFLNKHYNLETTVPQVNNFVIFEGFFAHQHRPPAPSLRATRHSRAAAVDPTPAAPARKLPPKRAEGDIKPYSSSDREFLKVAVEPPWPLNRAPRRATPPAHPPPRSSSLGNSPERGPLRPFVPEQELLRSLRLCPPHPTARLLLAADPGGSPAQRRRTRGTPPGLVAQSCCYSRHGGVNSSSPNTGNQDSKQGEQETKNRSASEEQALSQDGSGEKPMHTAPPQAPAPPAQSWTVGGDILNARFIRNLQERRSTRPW
UniProt Q07157: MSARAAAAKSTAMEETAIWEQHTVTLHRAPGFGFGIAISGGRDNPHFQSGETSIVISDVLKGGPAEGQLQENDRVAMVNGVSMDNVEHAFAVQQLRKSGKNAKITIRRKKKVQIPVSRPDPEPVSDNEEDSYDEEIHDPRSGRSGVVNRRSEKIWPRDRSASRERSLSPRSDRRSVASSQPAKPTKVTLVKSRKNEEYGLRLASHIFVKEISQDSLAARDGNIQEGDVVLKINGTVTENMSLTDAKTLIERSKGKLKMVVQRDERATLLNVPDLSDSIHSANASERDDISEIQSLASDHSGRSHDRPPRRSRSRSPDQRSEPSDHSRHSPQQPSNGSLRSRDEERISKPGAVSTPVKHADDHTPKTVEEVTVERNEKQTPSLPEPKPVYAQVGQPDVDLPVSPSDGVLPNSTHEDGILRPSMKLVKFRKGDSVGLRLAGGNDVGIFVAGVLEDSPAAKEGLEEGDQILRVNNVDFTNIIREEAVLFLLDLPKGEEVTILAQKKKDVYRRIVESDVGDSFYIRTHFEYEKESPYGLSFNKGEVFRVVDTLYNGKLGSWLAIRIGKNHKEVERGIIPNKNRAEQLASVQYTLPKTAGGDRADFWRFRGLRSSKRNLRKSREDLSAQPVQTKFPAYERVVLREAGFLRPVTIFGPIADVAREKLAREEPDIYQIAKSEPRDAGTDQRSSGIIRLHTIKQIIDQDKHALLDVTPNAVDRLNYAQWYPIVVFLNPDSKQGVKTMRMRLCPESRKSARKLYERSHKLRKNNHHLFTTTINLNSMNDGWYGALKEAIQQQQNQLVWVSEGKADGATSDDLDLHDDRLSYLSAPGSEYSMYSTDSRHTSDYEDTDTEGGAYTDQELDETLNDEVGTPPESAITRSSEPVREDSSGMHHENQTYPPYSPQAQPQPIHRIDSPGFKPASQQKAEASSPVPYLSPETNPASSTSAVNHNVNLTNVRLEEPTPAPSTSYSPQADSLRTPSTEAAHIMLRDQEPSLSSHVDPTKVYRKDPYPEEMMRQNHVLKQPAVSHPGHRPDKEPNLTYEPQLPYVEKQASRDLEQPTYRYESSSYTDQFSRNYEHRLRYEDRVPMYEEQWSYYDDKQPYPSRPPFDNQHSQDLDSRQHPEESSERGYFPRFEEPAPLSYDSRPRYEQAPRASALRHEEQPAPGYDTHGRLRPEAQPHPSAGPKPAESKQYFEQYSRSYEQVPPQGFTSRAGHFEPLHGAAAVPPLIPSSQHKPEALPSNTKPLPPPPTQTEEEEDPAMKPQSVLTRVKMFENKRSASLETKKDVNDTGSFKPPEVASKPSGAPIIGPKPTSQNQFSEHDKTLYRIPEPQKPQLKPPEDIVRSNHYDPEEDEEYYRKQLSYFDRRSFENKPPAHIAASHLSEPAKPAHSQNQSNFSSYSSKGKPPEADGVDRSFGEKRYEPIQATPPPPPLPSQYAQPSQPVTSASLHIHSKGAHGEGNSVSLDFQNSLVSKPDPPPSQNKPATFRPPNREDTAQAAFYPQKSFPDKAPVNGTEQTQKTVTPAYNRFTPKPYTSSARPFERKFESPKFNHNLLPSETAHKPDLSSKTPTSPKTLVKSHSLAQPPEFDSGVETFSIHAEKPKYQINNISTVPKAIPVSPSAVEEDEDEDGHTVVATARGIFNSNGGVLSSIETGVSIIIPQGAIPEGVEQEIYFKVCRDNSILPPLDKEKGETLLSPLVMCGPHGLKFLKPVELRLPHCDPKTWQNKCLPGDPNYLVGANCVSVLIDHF
UniProt Q9NYQ7, residues 33-3312: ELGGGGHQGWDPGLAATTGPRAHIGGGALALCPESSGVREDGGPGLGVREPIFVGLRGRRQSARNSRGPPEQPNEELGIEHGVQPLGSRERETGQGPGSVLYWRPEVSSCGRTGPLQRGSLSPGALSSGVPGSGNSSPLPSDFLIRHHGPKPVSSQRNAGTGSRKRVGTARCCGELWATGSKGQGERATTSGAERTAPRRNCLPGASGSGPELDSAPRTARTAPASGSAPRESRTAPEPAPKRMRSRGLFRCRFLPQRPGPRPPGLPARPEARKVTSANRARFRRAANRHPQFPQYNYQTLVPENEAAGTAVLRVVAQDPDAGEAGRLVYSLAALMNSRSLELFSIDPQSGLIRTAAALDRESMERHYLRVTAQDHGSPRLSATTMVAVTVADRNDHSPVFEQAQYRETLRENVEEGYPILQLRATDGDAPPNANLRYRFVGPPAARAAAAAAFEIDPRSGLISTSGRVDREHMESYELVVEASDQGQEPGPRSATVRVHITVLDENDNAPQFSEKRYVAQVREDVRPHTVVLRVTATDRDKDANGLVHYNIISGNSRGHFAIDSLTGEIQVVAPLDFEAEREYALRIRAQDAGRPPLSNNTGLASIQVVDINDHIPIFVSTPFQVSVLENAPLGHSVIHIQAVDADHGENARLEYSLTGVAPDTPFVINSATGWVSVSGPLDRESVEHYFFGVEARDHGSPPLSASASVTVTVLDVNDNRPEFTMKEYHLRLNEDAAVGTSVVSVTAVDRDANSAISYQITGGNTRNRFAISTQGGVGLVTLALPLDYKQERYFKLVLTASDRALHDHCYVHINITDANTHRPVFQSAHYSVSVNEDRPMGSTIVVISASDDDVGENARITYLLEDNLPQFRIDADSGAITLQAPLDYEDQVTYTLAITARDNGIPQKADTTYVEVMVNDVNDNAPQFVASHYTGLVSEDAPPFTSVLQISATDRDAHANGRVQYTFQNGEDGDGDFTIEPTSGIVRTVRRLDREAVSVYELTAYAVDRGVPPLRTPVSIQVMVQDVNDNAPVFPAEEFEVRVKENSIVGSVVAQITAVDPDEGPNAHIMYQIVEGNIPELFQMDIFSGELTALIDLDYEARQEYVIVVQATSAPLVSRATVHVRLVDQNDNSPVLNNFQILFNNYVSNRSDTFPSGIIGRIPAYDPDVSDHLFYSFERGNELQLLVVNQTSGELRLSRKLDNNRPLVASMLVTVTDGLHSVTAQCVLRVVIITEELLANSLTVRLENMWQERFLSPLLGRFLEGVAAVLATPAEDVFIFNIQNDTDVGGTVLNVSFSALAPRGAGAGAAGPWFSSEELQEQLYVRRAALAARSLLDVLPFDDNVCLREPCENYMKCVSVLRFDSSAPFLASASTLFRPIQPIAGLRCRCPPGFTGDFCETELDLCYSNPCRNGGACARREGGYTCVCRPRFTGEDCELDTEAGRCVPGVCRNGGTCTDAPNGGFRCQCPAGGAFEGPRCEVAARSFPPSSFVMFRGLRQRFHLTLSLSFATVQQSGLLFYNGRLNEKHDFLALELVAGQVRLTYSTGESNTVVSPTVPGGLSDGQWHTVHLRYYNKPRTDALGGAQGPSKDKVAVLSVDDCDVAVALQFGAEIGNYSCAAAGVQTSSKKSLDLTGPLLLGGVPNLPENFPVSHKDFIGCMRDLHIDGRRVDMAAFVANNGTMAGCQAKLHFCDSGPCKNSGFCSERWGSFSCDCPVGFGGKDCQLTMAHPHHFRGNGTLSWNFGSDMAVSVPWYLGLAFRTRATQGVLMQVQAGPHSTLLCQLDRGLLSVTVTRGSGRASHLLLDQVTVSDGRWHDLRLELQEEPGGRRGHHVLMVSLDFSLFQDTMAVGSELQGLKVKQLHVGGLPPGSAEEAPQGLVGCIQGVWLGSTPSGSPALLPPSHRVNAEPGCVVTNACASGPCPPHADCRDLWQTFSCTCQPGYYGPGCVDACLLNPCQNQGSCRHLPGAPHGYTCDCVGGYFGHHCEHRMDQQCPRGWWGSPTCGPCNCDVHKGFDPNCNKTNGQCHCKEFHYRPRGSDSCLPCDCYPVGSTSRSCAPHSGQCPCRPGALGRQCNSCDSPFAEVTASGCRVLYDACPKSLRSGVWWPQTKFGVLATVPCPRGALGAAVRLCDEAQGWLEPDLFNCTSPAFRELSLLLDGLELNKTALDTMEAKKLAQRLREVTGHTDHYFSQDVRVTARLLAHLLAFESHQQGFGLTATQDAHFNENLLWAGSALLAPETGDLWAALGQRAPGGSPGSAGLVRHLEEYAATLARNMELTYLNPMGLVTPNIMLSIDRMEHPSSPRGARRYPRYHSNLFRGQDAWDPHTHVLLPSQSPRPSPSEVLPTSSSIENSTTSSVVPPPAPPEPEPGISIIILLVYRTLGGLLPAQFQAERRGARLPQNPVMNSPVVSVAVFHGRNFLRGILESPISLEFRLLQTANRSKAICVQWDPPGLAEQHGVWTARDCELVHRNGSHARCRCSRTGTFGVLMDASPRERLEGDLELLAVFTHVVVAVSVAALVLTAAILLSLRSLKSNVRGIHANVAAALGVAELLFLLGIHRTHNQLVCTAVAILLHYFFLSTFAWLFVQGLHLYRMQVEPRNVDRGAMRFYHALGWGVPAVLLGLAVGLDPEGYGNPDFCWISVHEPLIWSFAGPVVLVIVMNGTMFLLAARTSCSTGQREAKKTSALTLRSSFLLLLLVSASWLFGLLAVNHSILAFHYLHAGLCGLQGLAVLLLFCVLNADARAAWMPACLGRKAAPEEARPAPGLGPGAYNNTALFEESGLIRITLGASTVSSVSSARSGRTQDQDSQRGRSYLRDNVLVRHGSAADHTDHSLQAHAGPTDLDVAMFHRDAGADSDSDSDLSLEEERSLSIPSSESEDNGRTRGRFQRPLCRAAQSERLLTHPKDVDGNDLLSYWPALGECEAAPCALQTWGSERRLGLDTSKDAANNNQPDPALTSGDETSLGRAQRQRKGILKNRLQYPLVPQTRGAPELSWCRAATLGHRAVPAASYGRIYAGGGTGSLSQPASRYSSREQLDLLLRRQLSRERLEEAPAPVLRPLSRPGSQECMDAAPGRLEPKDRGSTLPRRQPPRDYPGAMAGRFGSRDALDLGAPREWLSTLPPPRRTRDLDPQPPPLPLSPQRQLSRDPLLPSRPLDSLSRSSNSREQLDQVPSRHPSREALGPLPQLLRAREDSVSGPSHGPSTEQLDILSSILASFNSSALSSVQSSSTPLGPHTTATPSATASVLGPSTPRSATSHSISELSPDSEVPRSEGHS

Tests used:
Assay in all cases: proximity labelling
[1] = target: BirA-0N4R^HA (human) (UniProt P10636)
[2] = target: BirA-0N3R^HA (human) (UniProt P10636)
[3] = target: BirA-0N4R^HA (human) (UniProt P10636); remark: listed apart in the source
[4] = target: BirA-0N3R^HA (human) (UniProt P10636); remark: listed apart in the source

| binding [1] | binding [2] | Molecule | other results |
| --- | --- | --- | --- |
| binds |  | RAB11A (from UniProt P62491 1-216) |  |
| binds | binds | heat shock protein HSPH1 (from UniProt Q92598 1-858) |  |
| binds |  | ATAT1 (from UniProt Q5SQI0 1-421) (enzyme) |  |
|  | binds | TJP1 (from UniProt Q07157 1-1748) |  |
| binds | binds | G-protein coupled receptor CELSR3 (from UniProt Q9NYQ7 33-3312) |  |
| binds |  | GPI (from UniProt P06744 1-558) (enzyme) |  |
|  |  | RALA (protein, UniProt P11233 1-206) MAANKPKGQNSLALHKVIMVGSGGVGKSALTLQFMYDEFVEDYEPTKADSYRKKVVLDGEEVQIDILDTAGQEDYAAIRDNYFRSGEGFLCVFSITEMESFAATADFREQILRVKEDENVPFLLVGNKSDLEDKRQVSVEEAKNRAEQWNVNYVETSAKTRANVDKVFFDLMREIRARKMEDSKEKNGKKKRKSLAKRIRERCCIL | binding [3]: binds |
|  |  | MARCKS (protein, UniProt P29966 1-332) MGAQFSKTAAKGEAAAERPGEAAVASSPSKANGQENGHVKVNGDASPAAAESGAKEELQANGSAPAADKEEPAAAGSGAASPSAAEKGEPAAAAAPEAGASPVEKEAPAEGEAAEPGSPTAAEGEAASAASSTSSPKAEDGATPSPSNETPKKKKKRFSFKKSFKLSGFSFKKNKKEAGEGGEAEAPAAEGGKDEAAGGAAAAAAEAGAASGEQAAAPGEEAAAGEEGAAGGDPQEAKPQEAAVAPEKPPASDETKAAEEPSKVEEKKAEEAGASAAACEAPSAAGPGAPPEQEAAPAEEPAAAAASSACAAPSQEAQPECSPEAPPAEAAE | binding [3]: binds |
|  |  | SH3PXD2B (protein, UniProt A1X283 1-911) MPPRRSIVEVKVLDVQKRRVPNKHYVYIIRVTWSSGSTEAIYRRYSKFFDLQMQMLDKFPMEGGQKDPKQRIIPFLPGKILFRRSHIRDVAVKRLIPIDEYCKALIQLPPYISQCDEVLQFFETRPEDLNPPKEEHIGKKKSGGDQTSVDPMVLEQYVVVANYQKQESSEISLSVGQVVDIIEKNESGWWFVSTAEEQGWVPATCLEGQDGVQDEFSLQPEEEEKYTVIYPYTARDQDEMNLERGAVVEVIQKNLEGWWKIRYQGKEGWAPASYLKKNSGEPLPPKPGPGSPSHPGALDLDGVSRQQNAVGREKELLSSQRDGRFEGRPVPDGDAKQRSPKMRQRPPPRRDMTIPRGLNLPKPPIPPQVEEEYYTIAEFQTTIPDGISFQAGLKVEVIEKNLSGWWYIQIEDKEGWAPATFIDKYKKTSNASRPNFLAPLPHEVTQLRLGEAAALENNTGSEATGPSRPLPDAPHGVMDSGLPWSKDWKGSKDVLRKASSDMSASAGYEEISDPDMEEKPSLPPRKESIIKSEGELLERERERQRTEQLRGPTPKPPGVILPMMPAKHIPPARDSRRPEPKPDKSRLFQLKNDMGLECGHKVLAKEVKKPNLRPISKSKTDLPEEKPDATPQNPFLKSRPQVRPKPAPSPKTEPPQGEDQVDICNLRSKLRPAKSQDKSLLDGEGPQAVGGQDVAFSRSFLPGEGPGRAQDRTGKQDGLSPKEISCRAPPRPAKTTDPVSKSVPVPLQEAPQQRPVVPPRRPPPPKKTSSSSRPLPEVRGPQCEGHESRAAPTPGRALLVPPKAKPFLSNSLGGQDDTRGKGSLGPWGTGKIGENREKAAAASVPNADGLKDSLYVAVADFEGDKDTSSFQEGTVFEVREKNSSGWWFCQVLSGAPSWEGWIPSNYLRKKP | binding [4]: binds |
